This passage reports binding results from paper PMC7594058.

Chains of the proteins cited; added tags and fusions are not shown. Lines headed by an entry give the natural chain unless they say otherwise; changes in a name come on top.
UniProt P03072: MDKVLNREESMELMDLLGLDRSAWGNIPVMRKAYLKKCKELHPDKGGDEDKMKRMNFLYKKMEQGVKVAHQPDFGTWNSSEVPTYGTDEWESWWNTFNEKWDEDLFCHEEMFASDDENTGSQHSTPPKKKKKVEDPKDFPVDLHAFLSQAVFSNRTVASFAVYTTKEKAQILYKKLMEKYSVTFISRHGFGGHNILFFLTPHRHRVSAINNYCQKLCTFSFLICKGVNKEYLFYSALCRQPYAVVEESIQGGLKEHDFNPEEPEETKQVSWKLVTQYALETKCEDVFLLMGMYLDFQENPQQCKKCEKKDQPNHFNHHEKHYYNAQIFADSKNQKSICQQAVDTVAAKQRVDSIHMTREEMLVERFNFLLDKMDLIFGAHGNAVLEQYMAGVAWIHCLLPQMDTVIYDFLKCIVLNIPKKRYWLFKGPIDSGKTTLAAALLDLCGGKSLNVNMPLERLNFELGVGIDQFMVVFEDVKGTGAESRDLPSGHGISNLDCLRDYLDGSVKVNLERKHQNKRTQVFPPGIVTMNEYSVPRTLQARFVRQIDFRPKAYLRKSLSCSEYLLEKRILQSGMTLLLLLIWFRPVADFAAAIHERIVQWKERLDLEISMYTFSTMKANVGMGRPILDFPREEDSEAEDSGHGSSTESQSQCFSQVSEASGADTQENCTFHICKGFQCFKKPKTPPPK
UniProt P03083: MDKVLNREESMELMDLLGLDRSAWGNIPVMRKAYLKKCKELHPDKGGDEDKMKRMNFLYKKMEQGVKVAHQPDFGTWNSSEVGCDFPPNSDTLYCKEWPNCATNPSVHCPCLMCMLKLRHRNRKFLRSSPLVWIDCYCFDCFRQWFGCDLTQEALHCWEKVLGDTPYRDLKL
UniProt O43795: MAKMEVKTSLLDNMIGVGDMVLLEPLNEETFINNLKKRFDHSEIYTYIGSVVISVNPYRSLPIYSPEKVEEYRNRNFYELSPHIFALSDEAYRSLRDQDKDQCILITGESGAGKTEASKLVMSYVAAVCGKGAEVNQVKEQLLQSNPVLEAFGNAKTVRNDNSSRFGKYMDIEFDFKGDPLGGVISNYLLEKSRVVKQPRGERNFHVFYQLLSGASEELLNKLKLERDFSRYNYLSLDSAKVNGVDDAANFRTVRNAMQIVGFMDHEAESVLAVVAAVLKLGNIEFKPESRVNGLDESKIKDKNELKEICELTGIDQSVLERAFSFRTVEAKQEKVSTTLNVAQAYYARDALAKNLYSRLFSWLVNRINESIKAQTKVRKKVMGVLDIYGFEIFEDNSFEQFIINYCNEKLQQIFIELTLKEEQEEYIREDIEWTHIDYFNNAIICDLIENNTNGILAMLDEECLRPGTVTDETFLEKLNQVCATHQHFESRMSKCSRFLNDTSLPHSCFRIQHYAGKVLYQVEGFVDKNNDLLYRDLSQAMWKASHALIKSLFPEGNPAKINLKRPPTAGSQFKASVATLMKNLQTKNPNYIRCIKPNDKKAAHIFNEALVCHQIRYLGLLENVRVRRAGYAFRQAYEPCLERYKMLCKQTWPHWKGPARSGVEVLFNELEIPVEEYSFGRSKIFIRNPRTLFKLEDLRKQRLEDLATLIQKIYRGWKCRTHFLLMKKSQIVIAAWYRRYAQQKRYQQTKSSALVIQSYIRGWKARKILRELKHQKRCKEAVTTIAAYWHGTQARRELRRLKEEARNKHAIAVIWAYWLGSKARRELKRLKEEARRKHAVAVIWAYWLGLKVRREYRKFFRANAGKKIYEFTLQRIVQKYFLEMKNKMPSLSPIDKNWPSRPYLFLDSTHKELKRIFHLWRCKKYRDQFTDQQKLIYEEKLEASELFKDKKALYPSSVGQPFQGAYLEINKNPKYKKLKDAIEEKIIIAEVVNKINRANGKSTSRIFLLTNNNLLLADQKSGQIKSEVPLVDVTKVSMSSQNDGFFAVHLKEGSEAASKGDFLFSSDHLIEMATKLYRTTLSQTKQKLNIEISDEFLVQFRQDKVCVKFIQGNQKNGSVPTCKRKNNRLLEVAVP
UniProt Q14247: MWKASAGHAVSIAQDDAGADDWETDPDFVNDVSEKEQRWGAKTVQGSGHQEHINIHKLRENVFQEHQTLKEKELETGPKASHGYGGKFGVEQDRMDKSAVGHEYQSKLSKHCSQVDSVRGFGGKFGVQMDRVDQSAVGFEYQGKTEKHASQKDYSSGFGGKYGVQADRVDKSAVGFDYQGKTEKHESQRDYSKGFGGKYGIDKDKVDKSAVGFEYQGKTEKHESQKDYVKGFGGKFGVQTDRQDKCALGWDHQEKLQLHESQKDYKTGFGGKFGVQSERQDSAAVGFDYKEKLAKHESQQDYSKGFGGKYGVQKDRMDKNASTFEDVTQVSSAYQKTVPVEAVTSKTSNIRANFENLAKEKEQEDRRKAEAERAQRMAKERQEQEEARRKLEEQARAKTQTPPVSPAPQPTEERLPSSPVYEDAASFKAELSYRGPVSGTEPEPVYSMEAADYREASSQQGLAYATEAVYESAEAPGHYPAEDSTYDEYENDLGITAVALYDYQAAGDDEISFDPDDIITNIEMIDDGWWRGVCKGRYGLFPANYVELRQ
UniProt P45973: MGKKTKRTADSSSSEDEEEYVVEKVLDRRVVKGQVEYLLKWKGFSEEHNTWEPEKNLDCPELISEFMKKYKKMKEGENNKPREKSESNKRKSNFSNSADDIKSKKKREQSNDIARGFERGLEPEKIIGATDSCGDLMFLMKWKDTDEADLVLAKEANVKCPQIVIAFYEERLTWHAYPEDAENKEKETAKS
UniProt Q9UM54: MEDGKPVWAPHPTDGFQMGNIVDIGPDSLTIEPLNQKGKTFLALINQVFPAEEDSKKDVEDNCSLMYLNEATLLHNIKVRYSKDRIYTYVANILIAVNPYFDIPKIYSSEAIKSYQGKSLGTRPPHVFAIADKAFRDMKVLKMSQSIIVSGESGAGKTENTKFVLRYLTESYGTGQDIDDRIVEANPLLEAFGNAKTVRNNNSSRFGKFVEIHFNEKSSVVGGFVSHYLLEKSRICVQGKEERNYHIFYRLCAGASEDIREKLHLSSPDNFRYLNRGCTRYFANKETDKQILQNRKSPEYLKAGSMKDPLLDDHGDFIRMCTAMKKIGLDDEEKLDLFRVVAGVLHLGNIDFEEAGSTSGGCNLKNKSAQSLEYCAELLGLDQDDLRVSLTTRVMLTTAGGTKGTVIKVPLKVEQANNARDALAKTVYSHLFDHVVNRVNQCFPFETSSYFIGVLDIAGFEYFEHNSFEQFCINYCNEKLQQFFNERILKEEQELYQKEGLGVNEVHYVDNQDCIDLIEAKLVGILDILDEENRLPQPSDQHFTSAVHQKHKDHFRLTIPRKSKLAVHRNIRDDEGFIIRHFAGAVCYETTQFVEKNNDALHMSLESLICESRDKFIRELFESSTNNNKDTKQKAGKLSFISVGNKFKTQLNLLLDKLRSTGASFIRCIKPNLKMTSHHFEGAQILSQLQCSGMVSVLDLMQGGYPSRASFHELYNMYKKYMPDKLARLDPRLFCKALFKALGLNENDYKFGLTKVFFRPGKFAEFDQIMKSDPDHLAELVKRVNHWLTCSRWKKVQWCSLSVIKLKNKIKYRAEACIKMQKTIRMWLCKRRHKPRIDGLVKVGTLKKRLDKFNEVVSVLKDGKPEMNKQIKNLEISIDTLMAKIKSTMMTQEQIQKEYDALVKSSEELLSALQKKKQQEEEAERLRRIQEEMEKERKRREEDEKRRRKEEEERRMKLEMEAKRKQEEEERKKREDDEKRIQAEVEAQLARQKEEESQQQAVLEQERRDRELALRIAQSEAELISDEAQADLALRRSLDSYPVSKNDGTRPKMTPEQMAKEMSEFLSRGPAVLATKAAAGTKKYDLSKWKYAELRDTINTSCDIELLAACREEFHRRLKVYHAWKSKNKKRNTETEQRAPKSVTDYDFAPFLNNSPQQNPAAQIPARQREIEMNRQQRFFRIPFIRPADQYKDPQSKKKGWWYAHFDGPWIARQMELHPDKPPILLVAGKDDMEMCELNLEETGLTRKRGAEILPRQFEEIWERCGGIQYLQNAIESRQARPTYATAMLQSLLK
UniProt P31942: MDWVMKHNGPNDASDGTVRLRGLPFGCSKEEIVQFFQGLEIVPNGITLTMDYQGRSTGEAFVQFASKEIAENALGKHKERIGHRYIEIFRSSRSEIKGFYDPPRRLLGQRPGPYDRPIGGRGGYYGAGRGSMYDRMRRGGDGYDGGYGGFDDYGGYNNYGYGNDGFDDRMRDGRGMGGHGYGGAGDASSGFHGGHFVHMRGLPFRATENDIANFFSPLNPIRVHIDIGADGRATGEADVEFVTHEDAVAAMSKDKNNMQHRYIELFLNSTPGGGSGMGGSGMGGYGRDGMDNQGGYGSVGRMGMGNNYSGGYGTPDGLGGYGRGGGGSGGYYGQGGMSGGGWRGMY
UniProt Q92598: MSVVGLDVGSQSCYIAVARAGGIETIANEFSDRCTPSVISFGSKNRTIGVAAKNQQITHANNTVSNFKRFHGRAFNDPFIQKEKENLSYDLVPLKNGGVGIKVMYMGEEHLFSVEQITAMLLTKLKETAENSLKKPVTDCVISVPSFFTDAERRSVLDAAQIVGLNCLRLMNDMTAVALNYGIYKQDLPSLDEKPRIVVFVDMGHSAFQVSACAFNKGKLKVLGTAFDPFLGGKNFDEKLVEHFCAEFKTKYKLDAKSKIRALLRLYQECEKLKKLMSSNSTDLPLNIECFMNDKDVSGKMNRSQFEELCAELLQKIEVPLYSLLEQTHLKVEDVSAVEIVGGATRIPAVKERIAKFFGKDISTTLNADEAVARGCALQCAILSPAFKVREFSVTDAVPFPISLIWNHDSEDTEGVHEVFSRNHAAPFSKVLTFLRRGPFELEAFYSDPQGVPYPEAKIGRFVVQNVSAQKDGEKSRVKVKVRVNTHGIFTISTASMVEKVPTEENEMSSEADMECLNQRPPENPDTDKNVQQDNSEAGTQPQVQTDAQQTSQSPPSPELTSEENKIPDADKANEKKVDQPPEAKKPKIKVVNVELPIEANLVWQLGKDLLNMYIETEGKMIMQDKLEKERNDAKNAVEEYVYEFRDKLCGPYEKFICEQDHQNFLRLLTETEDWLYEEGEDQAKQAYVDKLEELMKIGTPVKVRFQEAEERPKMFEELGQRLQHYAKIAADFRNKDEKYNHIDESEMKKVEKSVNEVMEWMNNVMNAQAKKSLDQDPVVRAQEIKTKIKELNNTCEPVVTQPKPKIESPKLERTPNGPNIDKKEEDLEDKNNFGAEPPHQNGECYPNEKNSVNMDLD
UniProt Q9UHB6: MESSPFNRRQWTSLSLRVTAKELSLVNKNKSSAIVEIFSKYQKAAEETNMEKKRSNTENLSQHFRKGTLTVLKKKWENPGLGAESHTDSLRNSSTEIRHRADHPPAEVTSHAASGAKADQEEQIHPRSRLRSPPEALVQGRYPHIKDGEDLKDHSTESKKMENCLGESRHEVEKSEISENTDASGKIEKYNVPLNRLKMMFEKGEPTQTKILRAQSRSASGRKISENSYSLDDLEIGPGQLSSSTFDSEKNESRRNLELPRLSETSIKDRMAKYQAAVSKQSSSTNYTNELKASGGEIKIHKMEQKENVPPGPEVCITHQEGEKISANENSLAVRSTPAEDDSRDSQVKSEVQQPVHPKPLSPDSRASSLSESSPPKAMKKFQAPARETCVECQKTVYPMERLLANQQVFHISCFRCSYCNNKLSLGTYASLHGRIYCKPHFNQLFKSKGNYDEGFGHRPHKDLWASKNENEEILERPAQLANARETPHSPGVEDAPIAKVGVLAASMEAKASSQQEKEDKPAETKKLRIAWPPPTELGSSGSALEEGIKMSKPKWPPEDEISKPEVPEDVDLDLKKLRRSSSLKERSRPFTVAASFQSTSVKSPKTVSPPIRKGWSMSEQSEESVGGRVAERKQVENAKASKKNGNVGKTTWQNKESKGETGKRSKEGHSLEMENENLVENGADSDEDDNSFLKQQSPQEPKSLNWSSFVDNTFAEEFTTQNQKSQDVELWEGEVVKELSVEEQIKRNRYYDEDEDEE

Experiment [1] deals with T7-2xStrep-JCV LT-Ag (JC virus (JCV)) (UniProt P03072). Put plainly: affinity purification with mass spectrometry.
Experiment [2] has as its target T7-2xStrep-JCV Sm t-Ag (JC virus (JCV)) (UniProt P03083). Put plainly: affinity purification with mass spectrometry.

These are yes or no findings as the source states them, for the method shown. In cells and extracts the contact can be indirect. A yes stands for co-enrichment or nearness to the bait. Other partners may have been found.

For the molecule “Unconventional myosin-Ib (from UniProt O43795 1-1136)”, the binding result in experiment [1] and in experiment [2] was “binds” throughout.

Turning to “Cortactin isoform a variant (Fragment) (from UniProt Q14247 1-550)”, the binding result in experiment [1] and in experiment [2] was “binds” throughout. Consider “Chromobox homolog 5 (HP1 alpha homolog, Drosophila) (from UniProt P45973 1-191)”, for which the binding entry in experiment [1] and in experiment [2] was “binds” in each case. In the case of “Unconventional myosin-VI (from UniProt Q9UM54 1-1294)”, the binding result in experiment [1] and in experiment [2] was “binds” each time.

In the case of “Actin related protein 2/3 complex, subunit 1B, 41 kDa (from UniProt O15143 1-372)”, the binding entry in experiment [1] and in experiment [2] was “binds” throughout. Take “Heterogeneous nuclear ribonucleoprotein H3 isoform a variant (from UniProt P31942 1-346)”: the binding result in experiment [1] and in experiment [2] was “binds” throughout. For “cDNA FLJ51707, highly similar to heat-shock protein 105 kDa (from UniProt Q92598 1-858)”, the binding result in experiment [1] and in experiment [2] was “binds” in each case. “Tumor protein p53 (from UniProt P04637 1-393)”: the binding entry in experiment [1] and in experiment [2] was “binds” throughout. In the case of “Epithelial protein lost in neoplasm beta variant (from UniProt Q9UHB6 1-759)”, the binding entry in experiment [1] and in experiment [2] was “binds” each time.

For the molecule “Capping protein (Actin filament) muscle Z-line, alpha 2 variant (from UniProt P47755 1-286)”, the binding result in experiment [1] and in experiment [2] was “binds” throughout.

B1: RNA-binding protein 12B (protein, UniProt Q8IXT5 1-1001)
chain: MAVVIRLLGLPFIAGPVDIRHFFTGLTIPDGGVHIIGGEIGEAFIIFATDEDARRAISRSGGFIKDSSVELFLSSKAEMQKTIEMKRTDRVGRGRPGSGTSGVDSLSNFIESVKEEASNSGYGSSINQDAGFHTNGTGHGNLRPRKTRPLKAENPYLFLRGLPYLVNEDDVRVFFSGLCVDGVIFLKHHDGRNNGDAIVKFASCVDASGGLKCHRSFMGSRFIEVMQGSEQQWIEFGGNAVKEGDVLRRSEEHSPPRGINDRHFRKRSHSKSPRRTRSRSPLGFYVHLKNLSLSIDERDLRNFFRGTDLTDEQIRFLYKDENRTRYAFVMFKTLKDYNTALSLHKTVLQYRPVHIDPISRKQMLKFIARYEKKRSGSLERDRPGHVSQKYSQEGNSGQKLCIYIRNFPFDVTKVEVQKFFADFLLAEDDIYLLYDDKGVGLGEALVKFKSEEQAMKAERLNRRRFLGTEVLLRLISEAQIQEFGVNFSVMSSEKMQARSQSRERGDHSHLFDSKDPPIYSVGAFENFRHQLEDLRQLDNFKHPQRDFRQPDRHPPEDFRHSSEDFRFPPEDFRHSPEDFRRPREEDFRRPSEEDFRRPWEEDFRRPPEDDFRHPREEDWRRPLEEDWRRPLEEDFRRSPTEDFRQLPEEDFRQPPEEDLRWLPEEDFRRPPEEDWRRPPEEDFRRPLQGEWRRPPEDDFRRPPEEDFRHSPEEDFRQSPQEHFRRPPQEHFRRPPPEHFRRPPPEHFRRPPPEHFRRPPPEHFRRPPPEHFRRPPPEHFRRPPQEHFRRPPQEHFRRSREEDFRHPPDEDFRGPPDEDFRHPPDEDFRSPQEEDFRCPSDEDFRQLPEEDLREAPEEDPRLPDNFRPPGEDFRSPPDDFRSHRPFVNFGRPEGGKFDFGKHNMGSFPEGRFMPDPKINCGSGRVTPIKIMNLPFKANVNEILDFFHGYRIIPDSVSIQYNEQGLPTGEAIVAMINYNEAMAAIKDLNDRPVGPRKVKLTLL
With B1, the binding result in experiment [1] and in experiment [2] was “binds” throughout.

B2: Signal recognition particle 9 kDa protein (protein, UniProt P49458 1-86)
chain: MPQYQTWEEFSRAAEKLYLADPMKARVVLKYRHSDGNLCVKVTDDLVCLVYKTDQAQDVKKIEKFHSQLMRLMVAKEARNVTMETE
For B2, the binding result in experiment [1] and in experiment [2] was “binds” throughout.

B3: Delta (3,5)-delta (2,4)-dienoyl-CoA isomerase, mitochondrial (protein, UniProt Q13011 34-328)
chain: TGSSAQEEASGVALGEAPDHSYESLRVTSAQKHVLHVQLNRPNKRNAMNKVFWREMVECFNKISRDADCRAVVISGAGKMFTAGIDLMDMASDILQPKGDDVARISWYLRDIITRYQETFNVIERCPKPVIAAVHGGCIGGGVDLVTACDIRYCAQDAFFQVKEVDVGLAADVGTLQRLPKVIGNQSLVNELAFTARKMMADEALGSGLVSRVFPDKEVMLDAALALAAEISSKSPVAVQSTKVNLLYSRDHSVAESLNYVASWNMSMLQTQDLVKSVQATTENKELKTVTFSKL
B3: in experiment [2], the binding entry is “binds”.

B4: Succinate Dehydrogenase Complex Iron Sulfur Subunit B (protein, UniProt P21912 29-280)
chain: AQTAAATAPRIKKFAIYRWDPDKAGDKPHMQTYEVDLNKCGPMVLDALIKIKNEVDSTLTFRRSCREGICGSCAMNINGGNTLACTRRIDTNLNKVSKIYPLPHMYVIKDLVPDLSNFYAQYKSIEPYLKKKDESQEGKQQYLQSIEEREKLDGLYECILCACCSTSCPSYWWNGDKYLGPAVLMQAYRWMIDSRDDFTEERLAKLQDPFSLYRCHTIMNCTRTCPKGLNPGKAIAEIKKMMATYKEKKASV
As for B4, in experiment [2], the binding result is “binds”.

B5: Heterogeneous nuclear ribonucleoprotein A0 (protein, UniProt Q13151 1-305)
chain: MENSQLCKLFIGGLNVQTSESGLRGHFEAFGTLTDCVVVVNPQTKRSRCFGFVTYSNVEEADAAMAASPHAVDGNTVELKRAVSREDSARPGAHAKVKKLFVGGLKGDVAEGDLIEHFSQFGTVEKAEIIADKQSGKKRGFGFVYFQNHDAADKAAVVKFHPIQGHRVEVKKAVPKEDIYSGGGGGGSRSSRGGRGGRGRGGGRDQNGLSKGGGGGYNSYGGYGGGGGGGYNAYGGGGGGSSYGGSDYGNGFGGFGSYSQHQSSYGPMKSGGGGGGGGSSWGGRSNSGPYRGGYGGGGGYGGSSF
With B5, in experiment [2], the binding entry is recorded as “binds”.

B6: Protein LTV1 homolog (protein, UniProt Q96GA3 1-475)
chain: MPHRKKKPFIEKKKAVSFHLVHRSQRDPLAADESAPQRVLLPTQKIDNEERRAEQRKYGVFFDDDYDYLQHLKEPSGPSELIPSSTFSAHNRREEKEETLVIPSTGIKLPSSVFASEFEEDVGLLNKAAPVSGPRLDFDPDIVAALDDDFDFDDPDNLLEDDFILQANKATGEEEGMDIQKSENEDDSEWEDVDDEKGDSNDDYDSAGLLSDEDCMSVPGKTHRAIADHLFWSEETKSRFTEYSMTSSVMRRNEQLTLHDERFEKFYEQYDDDEIGALDNAELEGSIQVDSNRLQEVLNDYYKEKAENCVKLNTLEPLEDQDLPMNELDESEEEEMITVVLEEAKEKWDCESICSTYSNLYNHPQLIKYQPKPKQIRISSKTGIPLNVLPKKGLTAKQTERIQMINGSDLPKVSTQPRSKNESKEDKRARKQAIKEERKERRVEKKANKLAFKLEKRRQEKELLNLKKNVEGLKL
In the case of B6, the binding entry in experiment [1] and in experiment [2] was “binds” in each case.

B7: Ras-GTPase activating protein SH3 domain-binding protein 2 (protein, UniProt Q9UN86 1-482)
chain: MVMEKPSPLLVGREFVRQYYTLLNKAPEYLHRFYGRNSSYVHGGVDASGKPQEAVYGQNDIHHKVLSLNFSECHTKIRHVDAHATLSDGVVVQVMGLLSNSGQPERKFMQTFVLAPEGSVPNKFYVHNDMFRYEDEVFGDSEPELDEESEDEVEEEQEERQPSPEPVQENANSGYYEAHPVTNGIEEPLEESSHEPEPEPESETKTEELKPQVEEKNLEELEEKSTTPPPAEPVSLPQEPPKAFSWASVTSKNLPPSGTVSSSGIPPHVKAPVSQPRVEAKPEVQSQPPRVREQRPRERPGFPPRGPRPGRGDMEQNDSDNRRIIRYPDSHQLFVGNLPHDIDENELKEFFMSFGNVVELRINTKGVGGKLPNFGFVVFDDSEPVQRILIAKPIMFRGEVRLNVEEKKTRAARERETRGGGDDRRDIRRNDRGPGGPRGIVGGGMMRDRDGRGPPPRGGMAQKLGSGRGTGQMEGRFTGQRR
For the molecule B7, the binding result in experiment [1] and in experiment [2] was “binds” each time.
